Data taken from doi:10.1101/2023.06.10.544440.

Sequences of proteins named here, by UniProt entry; tags and fusion partners are left off.
UniProt Q803B9: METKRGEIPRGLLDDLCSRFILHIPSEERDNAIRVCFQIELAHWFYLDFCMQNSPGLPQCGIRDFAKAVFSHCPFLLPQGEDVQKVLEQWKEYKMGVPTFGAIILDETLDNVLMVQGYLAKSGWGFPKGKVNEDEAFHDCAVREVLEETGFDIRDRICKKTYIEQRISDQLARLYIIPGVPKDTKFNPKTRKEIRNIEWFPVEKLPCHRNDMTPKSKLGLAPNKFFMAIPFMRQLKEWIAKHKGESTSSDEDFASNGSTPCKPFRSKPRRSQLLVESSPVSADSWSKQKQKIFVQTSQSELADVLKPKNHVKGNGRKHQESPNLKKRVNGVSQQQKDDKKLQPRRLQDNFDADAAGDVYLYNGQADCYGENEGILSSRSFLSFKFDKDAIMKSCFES
UniProt A0ACM8QBM4: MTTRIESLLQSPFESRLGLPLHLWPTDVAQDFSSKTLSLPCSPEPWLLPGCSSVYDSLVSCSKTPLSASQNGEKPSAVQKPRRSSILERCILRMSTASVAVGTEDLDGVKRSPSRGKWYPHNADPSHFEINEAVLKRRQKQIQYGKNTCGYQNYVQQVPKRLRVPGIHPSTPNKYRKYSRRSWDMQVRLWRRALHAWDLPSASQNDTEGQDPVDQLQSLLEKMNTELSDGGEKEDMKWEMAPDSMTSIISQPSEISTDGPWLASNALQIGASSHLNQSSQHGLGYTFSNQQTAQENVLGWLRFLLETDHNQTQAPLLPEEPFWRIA

T1: 3xflag-sfGFP-eIF4E1b (zebrafish) (zebrafish) (UniProt Q9PW28)
T1 sequence: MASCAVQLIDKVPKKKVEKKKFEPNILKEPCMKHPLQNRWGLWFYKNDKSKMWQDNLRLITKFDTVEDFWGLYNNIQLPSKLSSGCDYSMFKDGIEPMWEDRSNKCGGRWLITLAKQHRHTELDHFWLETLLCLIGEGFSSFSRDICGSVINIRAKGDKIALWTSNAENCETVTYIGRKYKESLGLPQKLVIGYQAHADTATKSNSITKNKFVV

B1: Edc4 (zebrafish, endogenous) (protein, UniProt Q1LUT1 1-1384)
chain: MASSSSMDIEGATQHLRDILKLDRPGNSAEASLVESQRKPSFNGELNGVLGSDLMGAAMVEPTVHNSDKLNGQDTQTICLSGDDGSICVPIRANIVEIVSSRDSSIDSKARGSNKVKIQPVAKYDWEHKYYYGNLIAVSNTYLAYAIRGANNHSMIRVLHLSSTERSLLKGFTGAVTDLAFAHLDSTLLGCVDEAGNMFIWQLTSHSSKIQDEVIVHIRRPEDTPLNSNRRLIWCPFIPEDNDESPEDACQTLALLHEDRAEVWDLDILRSNNSSWPVDATELKEGFITIRGHAARISEGALSPDGTVLATASHDGYVKFWQIYIEGQDQPRCLHEWQPHNGQPLSCLLFCDNHKKQDPDVPFWRFLITGADQNQELKMWCTVSWTCLQTIRFSPDPFNCGVLPSLKASLDLSAEFLILSDVQRKVLYVMELLQDQEKGRASFTAVSEFLLTHPVLSFGVQDVSRARLRHTEVLPPEEESESMTAEGNQGTSESRSGIQIKLYCVHTKSLQDVQIWFQPNQGDSSSLFMPQSGSQDGFSFSDPLADLNVEAMSSDKESGDSGSQNDLSKILPLPSPADFMSPAPSALPKLMTPDAFMTPSASMPASPGSSASSLTIVTAMSSSDSGARGGDDLTQSPKMSVECVNSSFANAGSPRSNSILISGLGENIQVSPPNPPLSLDLQAIDPMVVPQASPTRARSPDVISSASTAMSQDIPEIASETLQRGLSGANADSGPILHSDSMASAASILHLLSPRARSSAEHSLLPLELGAASVDGEQRLSNTPSLLETALSQENAGAAGGSCSDSSVNHAWPAAPDITRETRNSLRDNGLGDCSREEIKDRHISSPYHRRTYHLTQNDSQDASAEQSDHDDEVASLASSSGNCGPRSSHRLPVKDWKTSPRSSPKLKRKSKKDEGESSQSRQIESQMSTEVQDELLQMLRSQQREIAELRQNQLDLLQRVTSHMDAVQSSMMAHIEHAMLAQQEQEQRRMERILVEGQSRNQQLQDQLVQQLVQTLNNSLCNRLEKVLREEMKKTVPQTISKSLEPVTGQMNSTIAAKLTAVEGALKENVTKVVKSKNTTDAIGRAAAEAMQGPIQAAYKETFQSIVLPVFERGCQSMFQQINDSFKQGTNEYIQQLETHIKNRKQRDQDTRDPVIGQLQQMIDSLQSSQDQLASTVTASVSSDVQHQLHMIVGNLQDSILTQVQRIVKGEVSLAMKEQQAAVTSSIMQAMRSAAGTPVPSAHLDYQAQQASILQLLQQGQLNEAFQQALSAADLNLVLYVCETIDSQQVFGQQPCPLHQAVLLSLIQQLSTNLSTRTELKISYLEDAVMNLDHGDPVTRDHMSAVLTQVRQKLFLFLQQDAHSPMSKRARRLMMMLQGLVNH

What follows are molecules tested against T1, 3xflag-sfGFP-eIF4E1b (zebrafish) (zebrafish) (assay: affinity purification with mass spectrometry).

Row | Molecule | binding
1 | eIF4ENIF1 (zebrafish, endogenous) | binds

Biological target: T1, 3xflag-sfGFP-eIF4E1b (zebrafish) (zebrafish)
Assay: affinity purification with mass spectrometry
Remark: another data set of the same source

Row | Molecule | binding
2 | Dcp1 (zebrafish, endogenous) | no binding
3 | Dcp2 (zebrafish, endogenous) (from UniProt Q803B9 1-397) | no binding
4 | SLBP2 (zebrafish, endogenous) (from UniProt A0ACM8QBM4 1-326) | binds
5 | SLBP (zebrafish, endogenous) | binds
6 | eIF4ENIF1 (zebrafish, endogenous) | binds
7 | B1 | no binding

These are yes or no findings as the source states them, for the method shown. Binding seen in cells or lysates may run through a third protein. A yes stands for co-enrichment or nearness to the bait. Other partners may have been found. For some of these results: A no says only that the protein was not detected with the bait. Tags and fused reporters may be left off the sequences shown.
